{"source": "PubChem BioAssay AID652243, Drosophila RNAi Screening Center | 2013", "aim": "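Fly genes required for human androgen receptor driven transcription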 (primary screen)", "cell system": "Drosophila S2R+ cells", "knock-down reagent": "long dsRNA against Drosophila genes", "time to read-out": "72 h (48 h, then 24 h hormone)", "challenge": "synthetic androgen R1881 at 10 nM for 24 h", "measurement": "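Firefly light from an androgen-responsive reporter and Renilla control light per well, raw and unnormalised, for each of two replicates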", "scale": "firefly reporter light: higher = more light from androgen-responsive reporter; Renilla control light: higher = more constitutive control signal (cell number, transfection)", "call rule": "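Hit when the log firefly-to-Renilla ratio dropped or increased by a fixed fold versus the mean of GFP or LacZ controls across duplicate plates; lowering cut given as 1.5 and as 3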", "calls": "active = hit: reporter lowered or raised; inactive = no hit", "note": "The deposit covers about 24,000 reagents; this is an unselected part of those that have a named target and a result. Of all reagents, 246 (1%) were called active. 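Plates not normalised; calls are printed but the firefly/Renilla ratio behind them is not deposited; fold cut for lowering reported inconsistently.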 The raw values are shown without normalisation. Unmarked entries are inactive. Reagents against one gene are numbered here. Reagent sequences are not shown. Not given: the amount of reagent."}
{"target": "Fhos (Formin homology 2 domain containing)", "dsRNA no.": 1, "firefly reporter light, replicate 1": 1.18e5, "firefly reporter light, replicate 2": 2.06e5, "Renilla control light, replicate 1": 2.03e5, "Renilla control light, replicate 2": 2.71e5}
{"target": "Fhos (Formin homology 2 domain containing)", "dsRNA no.": 2, "firefly reporter light, replicate 1": 1.08e6, "firefly reporter light, replicate 2": 4.92e5, "Renilla control light, replicate 1": 1.59e6, "Renilla control light, replicate 2": 1.34e6}
{"target": "Fhos (Formin homology 2 domain containing)", "dsRNA no.": 3, "firefly reporter light, replicate 1": 7.35e5, "firefly reporter light, replicate 2": 1.01e6, "Renilla control light, replicate 1": 1.54e6, "Renilla control light, replicate 2": 2.82e6}
{"target": "Fhos (Formin homology 2 domain containing)", "dsRNA no.": 4, "firefly reporter light, replicate 1": 4.05e5, "firefly reporter light, replicate 2": 2.63e5, "Renilla control light, replicate 1": 4.23e6, "Renilla control light, replicate 2": 2.45e6}
{"target": "Fhos (Formin homology 2 domain containing)", "dsRNA no.": 5, "firefly reporter light, replicate 1": 5.70e5, "firefly reporter light, replicate 2": 4.84e5, "Renilla control light, replicate 1": 1.44e6, "Renilla control light, replicate 2": 1.45e6}
{"target": "Acox57D-p (acyl-Coenzyme A oxidase at 57D proximal)", "dsRNA no.": 1, "firefly reporter light, replicate 1": 7.94e5, "firefly reporter light, replicate 2": 7.81e5, "Renilla control light, replicate 1": 1.80e6, "Renilla control light, replicate 2": 2.18e6}
{"target": "phol (pleiohomeotic like)", "dsRNA no.": 1, "firefly reporter light, replicate 1": 1.05e6, "firefly reporter light, replicate 2": 4.32e5, "Renilla control light, replicate 1": 1.20e6, "Renilla control light, replicate 2": 5.86e5}
{"target": "phol (pleiohomeotic like)", "dsRNA no.": 2, "firefly reporter light, replicate 1": 7.15e5, "firefly reporter light, replicate 2": 7.13e5, "Renilla control light, replicate 1": 4.71e5, "Renilla control light, replicate 2": 5.61e5}
{"target": "Alg12 (Alg12 alpha-1,6-mannosyltransferase)", "dsRNA no.": 1, "firefly reporter light, replicate 1": 1.24e5, "firefly reporter light, replicate 2": 1.72e5, "Renilla control light, replicate 1": 2.40e6, "Renilla control light, replicate 2": 2.88e6}
{"target": "CG13405", "dsRNA no.": 1, "firefly reporter light, replicate 1": 1.03e5, "firefly reporter light, replicate 2": 1.13e5, "Renilla control light, replicate 1": 1.51e6, "Renilla control light, replicate 2": 1.60e6}
{"target": "CG13405", "dsRNA no.": 2, "firefly reporter light, replicate 1": 6.26e5, "firefly reporter light, replicate 2": 6.10e5, "Renilla control light, replicate 1": 7.27e5, "Renilla control light, replicate 2": 8.62e5}
{"target": "fry (furry)", "dsRNA no.": 1, "firefly reporter light, replicate 1": 1.41e5, "firefly reporter light, replicate 2": 1.57e5, "Renilla control light, replicate 1": 3.44e5, "Renilla control light, replicate 2": 3.38e5}
{"target": "fry (furry)", "dsRNA no.": 2, "firefly reporter light, replicate 1": 1.90e5, "firefly reporter light, replicate 2": 2.09e5, "Renilla control light, replicate 1": 2.23e6, "Renilla control light, replicate 2": 1.14e6}
{"target": "fry (furry)", "dsRNA no.": 3, "firefly reporter light, replicate 1": 1.25e5, "firefly reporter light, replicate 2": 1.12e5, "Renilla control light, replicate 1": 1.73e6, "Renilla control light, replicate 2": 1.39e6}
{"target": "fry (furry)", "dsRNA no.": 4, "firefly reporter light, replicate 1": 2.78e5, "firefly reporter light, replicate 2": 2.02e5, "Renilla control light, replicate 1": 4.94e5, "Renilla control light, replicate 2": 5.02e5}
{"target": "CG4630", "dsRNA no.": 1, "firefly reporter light, replicate 1": 9.71e5, "firefly reporter light, replicate 2": 7.44e5, "Renilla control light, replicate 1": 1.28e6, "Renilla control light, replicate 2": 1.14e6}
{"target": "CG4630", "dsRNA no.": 2, "firefly reporter light, replicate 1": 3.70e5, "firefly reporter light, replicate 2": 2.87e5, "Renilla control light, replicate 1": 1.01e6, "Renilla control light, replicate 2": 7.63e5}
{"target": "CG8389", "dsRNA no.": 1, "firefly reporter light, replicate 1": 1.20e6, "firefly reporter light, replicate 2": 1.08e6, "Renilla control light, replicate 1": 3.00e6, "Renilla control light, replicate 2": 1.65e6}
{"target": "CG8389", "dsRNA no.": 2, "firefly reporter light, replicate 1": 4.43e5, "firefly reporter light, replicate 2": 7.10e5, "Renilla control light, replicate 1": 7.77e5, "Renilla control light, replicate 2": 1.90e6}
{"target": "CG8389", "dsRNA no.": 3, "firefly reporter light, replicate 1": 3.78e5, "firefly reporter light, replicate 2": 8.57e5, "Renilla control light, replicate 1": 9.43e5, "Renilla control light, replicate 2": 1.66e6}
{"target": "mab-21", "dsRNA no.": 1, "firefly reporter light, replicate 1": 2.78e5, "firefly reporter light, replicate 2": 3.01e5, "Renilla control light, replicate 1": 3.03e6, "Renilla control light, replicate 2": 3.08e6}
{"target": "mab-21", "dsRNA no.": 2, "firefly reporter light, replicate 1": 5.06e5, "firefly reporter light, replicate 2": 4.66e5, "Renilla control light, replicate 1": 9.00e5, "Renilla control light, replicate 2": 8.33e5}

2 entries from above, ordered by “Renilla control light, replicate 1”, high to low.
{"target": "Fhos (Formin homology 2 domain containing)", "dsRNA no.": 2, "firefly reporter light, replicate 1": 1.08e6, "firefly reporter light, replicate 2": 4.92e5, "Renilla control light, replicate 1": 1.59e6, "Renilla control light, replicate 2": 1.34e6}
{"target": "Fhos (Formin homology 2 domain containing)", "dsRNA no.": 3, "firefly reporter light, replicate 1": 7.35e5, "firefly reporter light, replicate 2": 1.01e6, "Renilla control light, replicate 1": 1.54e6, "Renilla control light, replicate 2": 2.82e6}
